Measured values: patent EP0072352B1, “Benzazepin-2-ones, process for their preparation, pharmaceutical preparations containing these compounds and the compounds for therapeutical use” (CIBA-GEIGY AG, priority 1981, dated 1983)
The structures given here were assigned with low confidence; some may be wrong.

Amino acid sequences for entries named in this document (tags omitted). Residues count along the entry.
UniProt P12822, 34-1310 limits assumed: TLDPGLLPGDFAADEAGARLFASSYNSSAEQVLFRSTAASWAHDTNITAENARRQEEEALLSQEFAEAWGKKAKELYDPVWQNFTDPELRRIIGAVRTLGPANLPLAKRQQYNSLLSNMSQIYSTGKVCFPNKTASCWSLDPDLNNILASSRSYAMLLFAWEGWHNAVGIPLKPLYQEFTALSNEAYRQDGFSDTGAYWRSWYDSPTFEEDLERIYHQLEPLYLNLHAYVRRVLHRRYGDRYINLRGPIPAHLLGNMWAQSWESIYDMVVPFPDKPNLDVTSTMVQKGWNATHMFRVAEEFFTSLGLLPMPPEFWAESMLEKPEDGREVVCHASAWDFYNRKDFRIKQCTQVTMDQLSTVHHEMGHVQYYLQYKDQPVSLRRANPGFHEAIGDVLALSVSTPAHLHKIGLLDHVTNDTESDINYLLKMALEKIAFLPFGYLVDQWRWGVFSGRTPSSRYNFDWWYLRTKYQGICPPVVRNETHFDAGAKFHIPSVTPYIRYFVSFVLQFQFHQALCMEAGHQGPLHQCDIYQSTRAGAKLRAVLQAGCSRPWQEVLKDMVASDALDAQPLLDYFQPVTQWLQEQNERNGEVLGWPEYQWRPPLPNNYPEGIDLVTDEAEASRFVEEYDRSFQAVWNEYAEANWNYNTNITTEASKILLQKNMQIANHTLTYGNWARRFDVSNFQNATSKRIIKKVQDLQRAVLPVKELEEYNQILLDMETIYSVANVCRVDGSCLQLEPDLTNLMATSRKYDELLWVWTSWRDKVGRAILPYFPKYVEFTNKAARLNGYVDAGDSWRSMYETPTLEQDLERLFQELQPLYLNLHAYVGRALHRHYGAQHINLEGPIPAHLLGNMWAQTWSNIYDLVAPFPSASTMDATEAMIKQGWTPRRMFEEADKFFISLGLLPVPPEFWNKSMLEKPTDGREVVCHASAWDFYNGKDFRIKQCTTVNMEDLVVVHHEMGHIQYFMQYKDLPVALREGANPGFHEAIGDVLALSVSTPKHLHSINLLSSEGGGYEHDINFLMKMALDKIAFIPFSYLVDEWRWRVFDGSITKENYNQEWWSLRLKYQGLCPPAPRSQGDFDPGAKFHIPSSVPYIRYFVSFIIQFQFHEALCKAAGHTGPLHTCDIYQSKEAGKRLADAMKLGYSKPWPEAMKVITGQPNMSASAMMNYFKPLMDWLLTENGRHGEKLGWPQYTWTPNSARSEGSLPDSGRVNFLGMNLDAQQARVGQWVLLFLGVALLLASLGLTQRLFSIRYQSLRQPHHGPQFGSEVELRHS

Experiments:
[1] = target: Angiotensin-umwandelnde Enzym (ACE) (Oryctolagus cuniculus, UniProt P12822); assay: In vitro ACE inhibition (ACEI), rabbit lung tissue preparation, hippuryl-histidyl-leucine substrate, method of Cheung and Cushman; details: read-out: In vitro ACEI IC50, 30 min incubation at 37°, tested form: HCl
[2] = system: durch Angiotensin I (AI) hervorgerufene Blutdrucksteigerung; assay: Inhibition of the angiotensin I (AI) induced blood pressure rise after intravenous administration of the test compound; details: i.v. Dosis 0.1 mg/kg; rat; mean inhibition within 30 min after administration; tested form: HCl
Excerpt: Die Verbindungen der Erfindung zeigen nach intravenöser oder oraler Verabreichung eine hemmende Wirkung gegen die durch Angiotensin I hervorgerufene Blutdrucksteigerung auch an normotensiven Ratten. Das Angiotensin 1 wird durch das genannte Umwandlungsenzym zu der stark blutdrucksteigernden Substanz Angiotensin II hydrolysiert. Die Hemmung des genannten Enzyms blockiert die Bildung von Angiotensin II aus Angiotensin I. In dieser Weise wird die durch Angiotensin I provozierte Blutdrucksteigerung abgeschwächt.
Der entsprechende in-vivo-Test mit den intravenös verabreichten Verbindungen wird mit männlichen normotensiven Ratten, welche mit dem Natriumsalz der 5-Äthyl-5-(1-methylpropyl)-2-thiobarbitursäure narkotisiert sind, durchgeführt. Eine femorale Arterie und eine Wadenvene werden mit je einer Hohlnadel für die direkte Messung des Blutdrucks und für die intravenöse Verabreichung des Angiotensins I und einer erfindungsgemäßen Verbindung versehen. Nach der Stabilisierung des basalen Blutdrucks wird die Druckänderung nach drei, in 5-minütigen Intervallen, i. v. durchgeführten Reizungen mit 333 ng/kg Angiotensin I bestimmt. Solche Druckänderungen werden wieder nach 5,10,15, 30 und 60 Minuten nach intravenöser Verabreichung der zu prüfenden Verbindung bestimmt. Die letztgenannten Druckänderungen werden mit den Anfangswerten verglichen. […]

`O=C(O)CN1C(=O)[C@@H](N[C@@H](CCc2ccccc2)C(=O)OCc2ccccc2)CCc2ccccc21` (relative stereo) was tested, and the IC50 [1] was 100 nM and the “% AI Hemmung” value [2] was 92%.
